The targets with a hit were mostly taken out for another list; the other results follow. Single values of this set are uncertain. This is a selection; strong and weak results do not stand in their true shares.

By UniProt entry, the sequences of proteins in these tests, tags left out. Where a name states a change or a piece, a line headed by the entry shows the natural chain unless it says otherwise.
UniProt Q9NZL9, whole entry, looked up: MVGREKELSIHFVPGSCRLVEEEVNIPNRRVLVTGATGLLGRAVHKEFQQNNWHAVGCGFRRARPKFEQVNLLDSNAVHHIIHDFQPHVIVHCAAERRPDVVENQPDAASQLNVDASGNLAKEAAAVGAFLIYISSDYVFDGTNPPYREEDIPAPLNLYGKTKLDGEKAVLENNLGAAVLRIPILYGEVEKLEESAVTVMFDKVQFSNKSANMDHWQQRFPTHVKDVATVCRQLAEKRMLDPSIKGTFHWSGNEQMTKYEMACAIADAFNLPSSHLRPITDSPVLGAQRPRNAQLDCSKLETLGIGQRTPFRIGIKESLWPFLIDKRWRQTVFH
UniProt Q9NZN8, whole entry: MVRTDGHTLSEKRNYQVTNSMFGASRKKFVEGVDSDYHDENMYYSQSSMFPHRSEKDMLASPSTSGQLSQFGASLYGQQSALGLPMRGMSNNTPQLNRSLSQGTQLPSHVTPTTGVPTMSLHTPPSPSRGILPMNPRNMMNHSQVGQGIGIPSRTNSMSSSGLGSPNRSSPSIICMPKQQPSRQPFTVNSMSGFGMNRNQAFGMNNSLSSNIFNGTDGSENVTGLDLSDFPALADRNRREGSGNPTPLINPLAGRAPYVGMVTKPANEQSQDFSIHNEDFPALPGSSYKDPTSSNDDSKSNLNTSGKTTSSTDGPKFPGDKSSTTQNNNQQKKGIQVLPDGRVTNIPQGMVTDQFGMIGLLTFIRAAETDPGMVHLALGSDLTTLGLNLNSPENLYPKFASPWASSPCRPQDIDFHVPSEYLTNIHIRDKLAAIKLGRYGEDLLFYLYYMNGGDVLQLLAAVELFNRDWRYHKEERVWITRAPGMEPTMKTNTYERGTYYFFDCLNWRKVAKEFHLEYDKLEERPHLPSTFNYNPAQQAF
UniProt Q9UGP8: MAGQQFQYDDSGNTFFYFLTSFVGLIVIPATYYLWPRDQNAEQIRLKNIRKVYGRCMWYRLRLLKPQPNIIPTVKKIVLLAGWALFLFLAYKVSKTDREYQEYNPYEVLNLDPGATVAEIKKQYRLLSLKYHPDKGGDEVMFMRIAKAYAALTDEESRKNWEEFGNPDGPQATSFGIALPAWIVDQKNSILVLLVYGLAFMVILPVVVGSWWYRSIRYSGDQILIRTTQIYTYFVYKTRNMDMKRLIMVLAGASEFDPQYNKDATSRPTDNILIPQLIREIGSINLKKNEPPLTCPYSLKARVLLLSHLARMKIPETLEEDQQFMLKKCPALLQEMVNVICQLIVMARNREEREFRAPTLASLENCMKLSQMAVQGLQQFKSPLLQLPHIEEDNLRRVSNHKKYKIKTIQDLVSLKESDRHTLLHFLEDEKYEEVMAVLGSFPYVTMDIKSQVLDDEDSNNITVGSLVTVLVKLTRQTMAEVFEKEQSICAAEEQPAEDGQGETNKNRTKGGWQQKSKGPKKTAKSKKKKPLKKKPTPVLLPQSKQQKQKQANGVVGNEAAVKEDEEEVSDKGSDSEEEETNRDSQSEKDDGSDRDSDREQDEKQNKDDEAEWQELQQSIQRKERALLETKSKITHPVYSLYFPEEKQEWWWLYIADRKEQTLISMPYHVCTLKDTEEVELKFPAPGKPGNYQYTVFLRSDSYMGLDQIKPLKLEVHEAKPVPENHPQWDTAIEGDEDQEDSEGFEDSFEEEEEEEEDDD
UniProt Q9NYL9: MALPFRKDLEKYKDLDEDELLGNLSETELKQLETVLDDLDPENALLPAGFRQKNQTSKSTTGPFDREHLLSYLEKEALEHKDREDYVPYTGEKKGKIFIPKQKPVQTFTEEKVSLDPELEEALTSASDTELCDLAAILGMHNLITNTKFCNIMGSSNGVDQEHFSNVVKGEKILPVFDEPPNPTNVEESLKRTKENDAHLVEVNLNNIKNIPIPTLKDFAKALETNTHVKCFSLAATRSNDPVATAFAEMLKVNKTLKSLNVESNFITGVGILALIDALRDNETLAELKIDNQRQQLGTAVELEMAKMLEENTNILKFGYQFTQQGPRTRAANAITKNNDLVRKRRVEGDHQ
UniProt Q9P2R3: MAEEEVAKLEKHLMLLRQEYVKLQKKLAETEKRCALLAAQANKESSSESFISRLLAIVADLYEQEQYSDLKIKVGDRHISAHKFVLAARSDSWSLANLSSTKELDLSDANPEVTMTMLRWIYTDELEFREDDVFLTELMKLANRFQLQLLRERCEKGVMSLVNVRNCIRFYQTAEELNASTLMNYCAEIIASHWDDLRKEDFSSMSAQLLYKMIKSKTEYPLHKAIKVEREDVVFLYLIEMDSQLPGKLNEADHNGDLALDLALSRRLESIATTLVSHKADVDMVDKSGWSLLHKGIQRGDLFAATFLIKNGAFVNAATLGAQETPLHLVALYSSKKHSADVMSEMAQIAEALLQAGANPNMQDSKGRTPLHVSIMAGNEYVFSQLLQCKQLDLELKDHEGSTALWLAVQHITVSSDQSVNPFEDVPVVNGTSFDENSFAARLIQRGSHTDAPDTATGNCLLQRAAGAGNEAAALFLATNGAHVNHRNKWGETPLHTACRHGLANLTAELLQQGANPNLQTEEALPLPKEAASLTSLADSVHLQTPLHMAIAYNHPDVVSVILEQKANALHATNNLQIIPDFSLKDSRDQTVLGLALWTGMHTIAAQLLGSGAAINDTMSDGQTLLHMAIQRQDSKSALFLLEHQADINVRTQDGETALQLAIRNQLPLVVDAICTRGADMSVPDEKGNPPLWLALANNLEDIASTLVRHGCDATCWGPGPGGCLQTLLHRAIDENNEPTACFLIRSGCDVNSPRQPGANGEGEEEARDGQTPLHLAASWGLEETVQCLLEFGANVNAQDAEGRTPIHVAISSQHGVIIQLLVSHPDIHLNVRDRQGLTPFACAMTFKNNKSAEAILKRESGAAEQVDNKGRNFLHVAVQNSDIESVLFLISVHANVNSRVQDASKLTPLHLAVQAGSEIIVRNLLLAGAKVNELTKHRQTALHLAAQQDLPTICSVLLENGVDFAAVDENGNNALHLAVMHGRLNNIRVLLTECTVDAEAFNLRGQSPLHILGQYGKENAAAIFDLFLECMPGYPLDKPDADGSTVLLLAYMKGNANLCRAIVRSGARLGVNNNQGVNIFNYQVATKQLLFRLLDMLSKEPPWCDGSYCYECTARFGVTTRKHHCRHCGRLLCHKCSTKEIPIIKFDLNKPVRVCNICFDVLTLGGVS
UniProt Q9P1Y6: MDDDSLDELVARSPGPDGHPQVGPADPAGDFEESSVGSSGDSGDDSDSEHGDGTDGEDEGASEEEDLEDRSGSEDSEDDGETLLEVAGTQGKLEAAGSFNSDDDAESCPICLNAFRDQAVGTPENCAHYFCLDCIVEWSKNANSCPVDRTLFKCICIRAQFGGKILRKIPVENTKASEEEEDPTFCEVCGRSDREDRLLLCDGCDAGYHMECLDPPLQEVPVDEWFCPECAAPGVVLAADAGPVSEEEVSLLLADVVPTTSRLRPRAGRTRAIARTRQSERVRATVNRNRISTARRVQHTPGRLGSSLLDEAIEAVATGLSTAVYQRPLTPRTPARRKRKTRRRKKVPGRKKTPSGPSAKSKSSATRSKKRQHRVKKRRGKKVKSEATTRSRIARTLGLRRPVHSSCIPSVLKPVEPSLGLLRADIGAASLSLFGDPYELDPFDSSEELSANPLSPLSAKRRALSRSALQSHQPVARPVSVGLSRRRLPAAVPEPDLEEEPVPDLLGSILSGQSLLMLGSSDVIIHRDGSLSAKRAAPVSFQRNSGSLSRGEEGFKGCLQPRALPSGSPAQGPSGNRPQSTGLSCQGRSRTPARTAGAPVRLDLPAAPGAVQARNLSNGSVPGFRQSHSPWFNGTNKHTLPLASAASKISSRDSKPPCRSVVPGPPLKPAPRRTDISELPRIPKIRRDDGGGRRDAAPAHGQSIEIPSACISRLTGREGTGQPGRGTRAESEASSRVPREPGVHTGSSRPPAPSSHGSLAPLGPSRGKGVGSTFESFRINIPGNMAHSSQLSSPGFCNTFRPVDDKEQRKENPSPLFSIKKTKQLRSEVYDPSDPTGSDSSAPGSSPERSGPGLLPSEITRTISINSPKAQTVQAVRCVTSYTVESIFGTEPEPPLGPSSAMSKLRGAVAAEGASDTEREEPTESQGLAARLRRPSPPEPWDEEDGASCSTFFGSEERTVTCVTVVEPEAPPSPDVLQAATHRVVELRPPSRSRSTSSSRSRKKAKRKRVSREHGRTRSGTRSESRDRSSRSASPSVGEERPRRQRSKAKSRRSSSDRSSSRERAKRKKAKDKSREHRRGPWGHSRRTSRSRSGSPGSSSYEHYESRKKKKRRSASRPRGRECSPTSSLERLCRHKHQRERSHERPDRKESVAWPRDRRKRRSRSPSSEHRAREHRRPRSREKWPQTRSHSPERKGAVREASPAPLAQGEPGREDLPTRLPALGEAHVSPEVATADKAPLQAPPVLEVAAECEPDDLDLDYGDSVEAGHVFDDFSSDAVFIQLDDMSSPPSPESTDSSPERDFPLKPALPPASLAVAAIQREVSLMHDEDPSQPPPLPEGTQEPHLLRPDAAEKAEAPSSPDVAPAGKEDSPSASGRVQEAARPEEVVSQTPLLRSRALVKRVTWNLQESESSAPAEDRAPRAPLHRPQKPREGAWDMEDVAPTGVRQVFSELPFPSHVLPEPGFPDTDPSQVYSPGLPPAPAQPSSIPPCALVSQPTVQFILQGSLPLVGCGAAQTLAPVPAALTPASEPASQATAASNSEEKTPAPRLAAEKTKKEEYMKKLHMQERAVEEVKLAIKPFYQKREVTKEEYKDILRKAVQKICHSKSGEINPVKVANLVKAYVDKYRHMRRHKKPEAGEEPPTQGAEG
UniProt Q9UBF6, whole entry: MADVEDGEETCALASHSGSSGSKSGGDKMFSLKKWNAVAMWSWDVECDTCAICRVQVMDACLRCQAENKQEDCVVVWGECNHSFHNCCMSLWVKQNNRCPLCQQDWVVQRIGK
UniProt Q9P032: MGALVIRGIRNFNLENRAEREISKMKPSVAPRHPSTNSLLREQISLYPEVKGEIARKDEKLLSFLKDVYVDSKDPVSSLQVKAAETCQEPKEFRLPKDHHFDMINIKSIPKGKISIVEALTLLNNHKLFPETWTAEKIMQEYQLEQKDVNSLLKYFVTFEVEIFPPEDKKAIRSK
UniProt Q9NVP2, whole entry, looked up: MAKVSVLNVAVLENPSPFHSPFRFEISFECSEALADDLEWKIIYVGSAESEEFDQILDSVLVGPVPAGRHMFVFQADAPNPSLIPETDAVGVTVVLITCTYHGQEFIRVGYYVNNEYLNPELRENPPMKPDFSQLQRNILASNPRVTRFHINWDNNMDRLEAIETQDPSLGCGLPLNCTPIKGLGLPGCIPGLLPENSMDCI
UniProt Q9NXV2: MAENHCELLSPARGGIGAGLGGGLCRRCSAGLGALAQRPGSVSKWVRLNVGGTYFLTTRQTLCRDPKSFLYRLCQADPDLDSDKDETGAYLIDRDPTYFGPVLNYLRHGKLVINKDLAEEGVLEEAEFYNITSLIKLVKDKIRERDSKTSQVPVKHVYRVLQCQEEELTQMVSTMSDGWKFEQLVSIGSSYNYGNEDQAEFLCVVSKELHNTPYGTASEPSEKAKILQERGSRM
UniProt Q9NZW5: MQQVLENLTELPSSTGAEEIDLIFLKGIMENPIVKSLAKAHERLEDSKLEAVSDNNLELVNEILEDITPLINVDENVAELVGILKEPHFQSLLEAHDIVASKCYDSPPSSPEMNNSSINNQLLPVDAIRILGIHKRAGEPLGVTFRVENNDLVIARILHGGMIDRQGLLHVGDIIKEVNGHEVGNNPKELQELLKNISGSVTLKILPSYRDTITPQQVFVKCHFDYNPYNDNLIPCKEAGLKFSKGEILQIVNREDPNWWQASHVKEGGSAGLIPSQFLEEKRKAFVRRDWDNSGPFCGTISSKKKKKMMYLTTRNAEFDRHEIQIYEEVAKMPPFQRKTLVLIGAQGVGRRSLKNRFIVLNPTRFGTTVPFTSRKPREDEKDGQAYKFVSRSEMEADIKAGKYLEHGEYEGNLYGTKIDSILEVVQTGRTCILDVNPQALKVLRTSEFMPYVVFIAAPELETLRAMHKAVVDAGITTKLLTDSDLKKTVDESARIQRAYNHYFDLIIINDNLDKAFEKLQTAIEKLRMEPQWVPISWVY
UniProt Q9NWY4: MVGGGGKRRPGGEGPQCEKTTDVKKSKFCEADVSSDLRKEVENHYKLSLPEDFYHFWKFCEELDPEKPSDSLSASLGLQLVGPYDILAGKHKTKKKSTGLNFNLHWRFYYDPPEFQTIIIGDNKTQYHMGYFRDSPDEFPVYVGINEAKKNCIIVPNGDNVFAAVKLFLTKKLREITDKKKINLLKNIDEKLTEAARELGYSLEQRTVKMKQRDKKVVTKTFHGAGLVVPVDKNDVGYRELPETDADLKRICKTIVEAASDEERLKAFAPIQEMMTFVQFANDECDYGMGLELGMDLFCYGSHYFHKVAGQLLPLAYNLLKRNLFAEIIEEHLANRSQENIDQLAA

Compound in this experiment: COC(=O)/C=C/c1ccccc1 [methyl cinnamate]
The experiment is described as follows: log2 ratio of iodoacetamide-alkyne labeling of the cysteine site, DMSO over compound (competition); higher = stronger covalent engagement of the cysteine by the compound, active = 1 or more. Particulars: 500 µM; treatment time 1 h; system: HEK293T cell lysate. Put shortly:
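Reporter intensities give each cysteine's log2 competition ratio as the mean of control channels over the mean of compound channels. The samples were HEK293T lysate (2 mg/mL) given vehicle or electrophile (500 µM, 1 h, ambient temperature), then iodoacetamide alkyne (1 h), followed by click coupling to sCIP-TMT reagents, pooling, trypsin digestion overnight at 37 °C, streptavidin enrichment, acid elution, Orbitrap Eclipse LC-MS/MS with FAIMS and FragPipe quantification. Duplicate channels and three replicates were run, and cysteines quantified in only one replicate were discarded.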
For MAT2B C297 (UniProt Q9NZL9), the “log2 ratio of iodoacetamide-alkyne labeling” value (from here on “log2 ratio”) is inactive: 0.163.

Take CNOT2 C175 (UniProt Q9NZN8): the “log2 ratio” value was inactive: -0.0595. Turning to SEC63 C295 (UniProt Q9UGP8), the “log2 ratio” value is inactive: 0.267. Under TMOD3 C231 (UniProt Q9NYL9) stands inactive: 0.137. Under ANKFY1 C460 (UniProt Q9P2R3) stands inactive: 0.309.

Turning to ATXN10 C405 (UniProt Q9UBB4), the “log2 ratio” value is inactive: 0.308. The figure for USP36 C977 (UniProt Q9P275) is inactive: 0.15; for ARHGEF12 C921 (UniProt Q9NZN5) it is inactive: 0.157. As to MRPL39 C335 (UniProt Q9NYK5), the “log2 ratio” value is inactive: 0.238. Under PHRF1 C797 (UniProt Q9P1Y6) stands inactive: -0.135; under SLAIN2 C306 (UniProt Q9P270), inactive: 0.269. For the target RNF7 C11 (UniProt Q9UBF6), the “log2 ratio” value is inactive: 0.28. For UniProt Q9P032_C87, the “log2 ratio” value was inactive: 0.338. Regarding ASF1B C178 (UniProt Q9NVP2), the “log2 ratio” value is inactive: 0.387. Under KCTD5 C28 (UniProt Q9NXV2) stands inactive: 0.313; under ADPRHL2 C287 (UniProt Q9NX46), inactive: -0.109; under LARS C522 (UniProt Q9P2J5), inactive: -0.214. The figure for MPP6 C236 (UniProt Q9NZW5) is inactive: 0.0559; for UniProt Q9NUQ3_C127 it is inactive: 0.478; for UniProt Q9P266_C1347 it is inactive: 0.357. The figure for UniProt Q9NWY4_C29 is inactive: 0.275; for UniProt Q9UBF8_C89 it is inactive: 0.415.

The record behind these values is the supplement of paper PMC11006884.
